This is one part of the list. The main result of the screen is listed elsewhere. These columns were measured beside it and carry no call. The list favours compounds with an active or inconclusive main result. Potencies come from curve fits of mixed quality, noted in brackets.
Experiment: qHTS Assay for Lipid Storage Modulators in Drosophila S3 Cells;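 on cell number change: cells counted by Cell Tracker Red CMTPX staining in the red channel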
Settings: BODIPY lipid droplet fluorescence, 18-24 h; for cell number change: measured here: cell count max response, cells fed with added oleic acid
In short: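 Drosophila S3 cells got compounds at several concentrations plus oleic acid (400 uM solution). Laser-scanning cytometry with 488 nm excitation read lipid droplets at 500-530 nm and cells at 575-640 nm. Percent activity was relative to 20 uM Triacsin C.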

[1] = measured here: lipid fluorescence (Fed channel) AC50, cells fed with added oleic acid
[2] = measured here: cell number channel AC50, cells fed with added oleic acid

O=C(O)CCn1c(-c2ccccn2)nc2ccccc21
cell number change: -10.6% | AC50 [1]: 20.6 µM [rising, single point]

COc1ccc(/C=C/C(=O)Nc2ccccc2C(=O)NCC(c2ccc(OC)cc2)N(C)C)cc1 (stereo not given)
cell number change: 9.13% | AC50 [1]: 29.1 µM [rising, single point]

O/N=C(/Cc1ccccn1)c1ccccc1
AC50 [1]: 29.1 µM [rising, single point]

O=C(Oc1ccc(Cl)cc1)c1ccc(COC(=O)c2cnccn2)cc1
cell number change: -85.7% | AC50 [2]: 4.61 µM [falling, partial curve] | AC50 [1]: 18.4 µM [falling, partial curve]

Cc1ccccc1-n1c(SCC(=O)c2cc(C)n(C)c2C)nnc1-c1ccncc1
cell number change: -23.8% | AC50 [1]: 1.46 µM [rising, full curve, poor fit]

CC1(C)CC(=O)C(C=NCC2CCCO2)=C(O)C1 (stereo not given)
cell number change: -4.15%

O=C(CN1C(=O)CCC1=O)Nc1nc(-c2ccc3ccccc3c2)cs1
cell number change: -39.8% | AC50 [2]: 20.6 µM [falling, single point] | AC50 [1]: 23.1 µM [falling, single point]

COc1ccc(COCC(O)CN2CCCC(C(F)(F)F)C2)cc1 (stereo not given)
cell number change: -18.8% | AC50 [1]: 29.1 µM [falling, single point]

CCCNC(=O)N1CCC(Cc2ccccc2)CC1
cell number change: -3.29% | AC50 [1]: 1.78 µM [falling, partial curve]

CCN(CC)C(=O)c1cc(S(=O)(=O)N2CCCCC2)c[nH]1
cell number change: 26.3% | AC50 [2]: 2.06 µM [rising, partial curve, poor fit]

COc1cccc(C(=O)Cn2c(=N)n(C)c3ccccc32)c1
cell number change: 3.25% | AC50 [2]: 5.17 µM [rising, single point] | AC50 [1]: 29.1 µM [rising, partial curve]

CCOC(=O)c1c(-c2ccccc2)c(C(C)=O)c(=O)n(C)c1C
cell number change: 11%

Brc1ccc(/C=N/N2CCN(C3c4ccccc4-c4ccccc43)CC2)s1
AC50 [2]: 2.06 µM [rising, single point] | AC50 [1]: 2.06 µM [rising, single point]

CC(C)(C)OC(=O)COc1cc(OCC(=O)OC(C)(C)C)c2c(=O)cc(-c3ccccc3)oc2c1
cell number change: -41% | AC50 [2]: 25.9 µM [falling, single point] | AC50 [1]: 25.9 µM [falling, single point]

CC(=O)c1ccc(-c2ccc(C(=O)N(C)c3c(N)n(Cc4ccccc4)c(=O)[nH]c3=O)o2)cc1
cell number change: 11% | AC50 [1]: 29.1 µM [falling, single point]

CCC(=O)Nc1cccc(-c2ccc(N3CCN(C)CC3)nn2)c1
cell number change: -56.3% | AC50 [2]: 29.1 µM [falling, single point]

COc1ccccc1N1CCN(S(=O)(=O)c2c(C)[nH]c(C)c2C(=O)N2CCCC2)CC1
cell number change: -38.3% | AC50 [2]: 32.6 µM [falling, single point]

COc1ccc(OCC(=O)N/N=C/c2cccn2-c2cccc(C(=O)O)c2)cc1
cell number change: 6.5%

O=C(Nc1cccc(Br)c1)c1ccn[nH]1
cell number change: -30.8% | AC50 [1]: 18.4 µM [falling, partial curve]

O=[N+]([O-])c1ccc(O)c(/C=N/Nc2ccccn2)c1
cell number change: -35.9% | AC50 [2]: 11.6 µM [falling, partial curve] | AC50 [1]: 13 µM [falling, partial curve]

O=C(O)c1cc(S(=O)(=O)NC23CC4CC(CC(C4)C2)C3)ccc1Cl
cell number change: -28% | AC50 [2]: 0.00461 µM [falling, full curve]

CCC(C)c1ccc(NC(=O)COc2c(F)c(F)c(C(F)(F)F)c(F)c2F)cc1 (stereo not given)
cell number change: -58.2% | AC50 [2]: 13 µM [falling, partial curve] | AC50 [1]: 14.6 µM [falling, partial curve]

CCOC(=O)c1[nH]c2ccccc2c1N=CN(CC)CC
cell number change: 4% | AC50 [1]: 13 µM [falling, partial curve]

CCOC(=O)CCCCC(=O)c1[nH]c(=O)[nH]c1CSCCO
cell number change: -15.4% | AC50 [1]: 0.146 µM [falling, full curve, poor fit]

COc1ccc(-c2ccc3c(c2)S(=O)(=O)c2cccc(C(=O)NC4CCCC4)c2C3=O)cc1OC
cell number change: -32.5% | AC50 [2]: 29.1 µM [falling, single point] | AC50 [1]: 2.31 µM [rising, partial curve]

C=CCOc1ccccc1CN(C(=O)CCl)c1ccc2c(c1)OCO2
AC50 [1]: 8.2 µM [falling, partial curve]

CCN1CCN(Cc2ccc(NC(=O)c3cc(NC(=O)c4cc(C)on4)cc(OC)c3)cc2C(F)(F)F)CC1
cell number change: 10%

COc1ccc(N(CC(=O)Nc2ccc(F)c(Cl)c2)S(=O)(=O)c2c(C)noc2C)cc1
cell number change: 203% | AC50 [2]: 14.6 µM [rising, partial curve] | AC50 [1]: 16.4 µM [rising, partial curve]

O=C(O)CN1C(=O)C(=O)N(Cc2ccc(Cl)cc2Cl)C1=O
cell number change: 25.9%

Cc1ccc(S(=O)(=O)c2nc(-c3ccco3)oc2NCC2CCCO2)cc1 (stereo not given)
cell number change: -13.7% | AC50 [1]: 6.51 µM [rising, single point]

CC(=O)c1ccccc1NS(=O)(=O)c1c(C)nn(-c2ccccc2)c1C
AC50 [2]: 0.731 µM [rising, partial curve]

CN1CCN(c2ccc(NC(=S)NC(=O)c3cccc4ccccc34)cc2)CC1
cell number change: 1.19% | AC50 [2]: 0.0366 µM [falling, full curve, poor fit] | AC50 [1]: 2.31 µM [rising, full curve, poor fit]

O=C(NCCc1ccc2c(c1)OCCO2)c1cc(F)cc(F)c1
cell number change: -17% | AC50 [1]: 20.6 µM [falling, partial curve, poor fit]

O=C(Nc1ccccc1)N1CCCN(Cc2c(F)cccc2Cl)CC1
cell number change: -47.6% | AC50 [2]: 16.4 µM [falling, single point] | AC50 [1]: 18.4 µM [falling, single point]

CC1CCN(C(C)C(=O)Nc2cc(S(=O)(=O)N3CCCCC3)ccc2Cl)CC1 (stereo not given)
cell number change: 8.33%

COc1cc(C(C(=O)NC2CCCC2)N(Cc2ccccc2)C(=O)c2snc(C(N)=O)c2N)ccc1O (stereo not given)
cell number change: 24.4% | AC50 [1]: 0.103 µM [rising, partial curve, poor fit]

Cc1ccc(NC(=O)CN2CCCCCC2)c(Br)c1
cell number change: -20.7%

Cc1cc2c(cc(C(=O)OC(C(=O)NCC3CCCO3)C(C)C)n2C)o1 (stereo not given)
cell number change: -31.5% | AC50 [2]: 29.1 µM [falling, single point] | AC50 [1]: 8.2 µM [falling, partial curve]

O=C(O)CNc1ccccc1C(=O)O
cell number change: -6.83% | AC50 [1]: 6.51 µM [falling, single point]

CCC(NS(=O)(=O)c1ccc(OC)cc1)C(=O)NCCc1ccccc1 (stereo not given)
cell number change: -25.8% | AC50 [1]: 29.1 µM [falling, single point]

O=C(Nc1nnc(C2CCCO2)s1)c1ccc(Br)cc1 (stereo not given)
cell number change: 0.809% | AC50 [1]: 29.1 µM [falling, single point]

Cc1cc(NC(=O)CCC(=O)N(Cc2ccco2)C(C(=O)NC2CCCC2)c2ccccc2C)no1 (stereo not given)
cell number change: -42.7% | AC50 [2]: 18.4 µM [falling, partial curve, poor fit] | AC50 [1]: 18.4 µM [falling, partial curve]

NS(=O)(=O)c1ccc(CCNC(=O)CSc2nnc3ccccn23)cc1
cell number change: -6.5%

Cc1cc(C)n2nc(S(=O)(=O)N(C)c3ccccc3)nc2n1
AC50 [1]: 6.51 µM [rising, single point]

COc1ccccc1NS(=O)(=O)c1cccc(NC(=O)C2CC2)c1
AC50 [1]: 5.8 µM [rising, partial curve, poor fit]

C#CCOCCOCCOCCNc1nc(N2CCN(C(=O)[C@H]([C@@H](C)O)n3cc(CCCCN)nn3)CC2)nc(N2CCN(C(=O)[C@H](CCCCN)n3cc(CCCC)nn3)CC2)n1
cell number change: -16.7% | AC50 [1]: 3.66 µM [rising, full curve]

CCN1CCCC1CN(Cc1cc2ccc(C)cc2[nH]c1=O)C(=S)Nc1cccc(OC)c1 (stereo not given)
cell number change: 10.6% | AC50 [1]: 0.206 µM [rising, partial curve, poor fit]

CCCCn1nnnc1NCc1ccc(C)cc1
cell number change: 7.72% | AC50 [1]: 1.16 µM [falling, full curve, poor fit]

O=C(Nc1ccc(S(=O)(=O)NC2=NCCCCC2)cc1)c1ccc(C(F)(F)F)cc1
cell number change: -13.3%

CCOC(=O)CNC(=O)CCNS(=O)(=O)c1ccc2c(c1)c(=O)n(C)c(=O)n2C
cell number change: 17.9% | AC50 [1]: 0.731 µM [falling, single point]

CNC(=O)c1c(NC(=O)c2ccco2)sc2c1CCC2
cell number change: -14.2% | AC50 [1]: 6.51 µM [falling, single point]

O=C(CCSc1nc(-c2ccco2)cc(C(F)(F)F)n1)NCC1CCCO1 (stereo not given)
cell number change: -8.38% | AC50 [1]: 0.0116 µM [rising, full curve, poor fit]

CC(=O)N(c1c(C)n(C)n(-c2ccccc2)c1=O)C1(C(=O)NC2CCCCC2)CCCCC1
cell number change: -4.14% | AC50 [1]: 29.1 µM [falling, single point]

CCOC(=O)C1C(=O)NCC1c1ccccc1 (stereo not given)
cell number change: -34.8% | AC50 [2]: 23.1 µM [falling, partial curve, poor fit] | AC50 [1]: 25.9 µM [falling, partial curve]

CCOC(=O)c1cc(-c2ccccc2)n(CCC(=O)N2CCN(c3ccccn3)CC2)c1C
cell number change: -29.4% | AC50 [1]: 11.6 µM [falling, partial curve]

Cc1cc(NC(=O)CSc2nc3c(sc4ccccc43)c(=O)n2CCCN2CCOCC2)n[nH]1
cell number change: 114% | AC50 [2]: 2.06 µM [rising, full curve] | AC50 [1]: 0.461 µM [rising, full curve]

O=C(CSc1nnc(CN2CCOCC2)n1-c1ccc(Cl)cc1)Nc1ccc2c(c1)OCO2
cell number change: 38.7% | AC50 [2]: 0.013 µM [rising, full curve] | AC50 [1]: 1.16 µM [rising, partial curve]

Reference: PubChem BioAssay AID2685 (National Center for Advancing Translational Sciences (NCATS), 2010)
